Experimental data as given in PubChem BioAssay AID504327 (National Center for Advancing Translational Sciences (NCATS), 2011).
Among all 390,000 compounds or so, about 820 (0.21%) were called active. The inconclusive results got no clear call from the source; some entries with a clear call stand among them for comparison. Calls come from the whole dose curve; as a rule, active = well fitted inhibition curve with a large enough effect; inconclusive = small, poorly fitted or top-dose-only effect, or another doubt; inactive = no such curve, though single readings can be large or run the other way. Where the call is inconclusive, the potency comes from a doubtful curve fit.

Sequences of proteins named here, by UniProt entry; tags and fusion partners are left off.
UniProt Q92830, whole entry, looked up: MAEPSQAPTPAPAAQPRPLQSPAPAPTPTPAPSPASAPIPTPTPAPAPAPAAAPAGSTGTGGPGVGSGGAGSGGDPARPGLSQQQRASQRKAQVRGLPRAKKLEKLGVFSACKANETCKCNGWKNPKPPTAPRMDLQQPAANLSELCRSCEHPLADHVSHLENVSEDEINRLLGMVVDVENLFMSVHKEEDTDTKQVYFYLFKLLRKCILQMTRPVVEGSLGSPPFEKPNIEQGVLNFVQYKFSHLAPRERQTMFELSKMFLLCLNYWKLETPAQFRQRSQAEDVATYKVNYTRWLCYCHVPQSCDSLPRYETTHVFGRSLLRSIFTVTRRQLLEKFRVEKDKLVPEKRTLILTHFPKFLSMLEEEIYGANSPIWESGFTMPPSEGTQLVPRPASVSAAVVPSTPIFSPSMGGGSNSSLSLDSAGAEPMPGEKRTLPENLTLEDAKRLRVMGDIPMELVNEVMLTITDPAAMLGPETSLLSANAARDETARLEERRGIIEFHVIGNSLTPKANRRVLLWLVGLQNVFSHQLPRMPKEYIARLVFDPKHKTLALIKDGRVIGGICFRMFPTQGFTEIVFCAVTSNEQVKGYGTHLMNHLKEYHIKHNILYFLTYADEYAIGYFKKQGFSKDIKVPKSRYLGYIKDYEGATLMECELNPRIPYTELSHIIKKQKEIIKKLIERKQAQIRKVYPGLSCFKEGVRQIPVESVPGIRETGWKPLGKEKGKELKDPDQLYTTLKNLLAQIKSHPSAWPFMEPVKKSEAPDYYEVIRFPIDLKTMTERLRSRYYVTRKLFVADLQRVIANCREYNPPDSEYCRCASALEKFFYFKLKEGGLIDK

The compounds below were run against Histone acetyltransferase KAT2A (Homo sapiens) (UniProt Q92830) (assay: qHTS Assay for Inhibitors of GCN5L2). Conditions: GCN5L2 HAT assay, ThioGlo1 CoA-SH fluorescence; activity change, negative = inhibition: at 58.9 µM (top of the series) unless noted.
In short: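 GCN5L2 (20 nM) in 50mM HEPES pH 7.5, 0.1mM EDTA, 0.01% Tween-20 preincubated 15 min with compounds at room temperature. Reaction started with H3(1-25) 75uM, acetyl-CoA 70uM, ThioGlo1 50uM; CoA-thiol fluorescence (Ex340/Em540) read at 0 and 20 min.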
% is set by controls: 0 for no effect and ±100 for the full control effect; potency is the fitted concentration of half-maximal effect.

SMILES	Potency	activity change, negative = inhibition
C=CCc1ccc(OCCCOc2ccc(C)c(C)c2)c(OC)c1	inconclusive: 39.8 µM [inhibitor, single point]	–
C=CCNc1nc(C(=O)OCC(=O)Nc2ccc(S(N)(=O)=O)cc2)cs1	–	inactive: -0.0859%
O=C(COC(=O)c1ccc(F)cc1Cl)Nc1cccc(S(=O)(=O)N2CCOCC2)c1	inconclusive: 25.1 µM [inhibitor, single point]	–
CCOC(=O)c1sc(N2C(=O)C(O)=C(C(=O)c3ccc(C)o3)C2c2ccc(OC)c(OC)c2)nc1C (stereo not drawn)	inconclusive: 0.355 µM [inhibitor, partial curve, poor fit]	–
Cc1cc(-n2cnnn2)cc(C)c1S(=O)(=O)NCCOc1ccccc1	–	inactive: -14.3%
Cc1nc2c(sc3nc(N4CCOCC4)c4c(c32)CC(C)(C)OC4)c(-c2ccc(Cl)cc2)c1C(=O)O	inconclusive: 35.5 µM [inhibitor, single point]	–
CC(C)(C)c1cc(C(C)(C)C)c2oc(=O)c(-c3nc4ccc(C(=O)O)cc4[nH]3)cc2c1	inconclusive: 28.2 µM [inhibitor, partial curve]	–
Cc1ccc(Nc2nc3ccccc3c3nnc(C)n23)cc1Cl	–	inactive: 0.71%
NC1=CC(=O)c2cccc3cccc1c23	–	inactive: -21.1%
CN1C(=O)/C(=C/c2ccc(-c3ccccc3[N+](=O)[O-])o2)SC1=Nc1ccc(Cl)c(C(=O)O)c1	–	inactive: 31.7%
COCCOC(=O)c1c(C)nc(SCC(=O)Nc2ccc(OC)cc2)c(C#N)c1-c1ccco1	–	inconclusive: -63.1% [inhibitor]
O=c1cc[nH]c2ccc(OC(F)(F)F)cc12	inconclusive: 5.62 µM [inhibitor, single point]	–
CN1CCN(C(=O)CCN2C(=O)/C(=C\c3ccc(Cl)cc3)SC2=S)CC1	inconclusive: 6.31 µM [inhibitor, full curve]	–
Cc1cc(NS(=O)(=O)c2ccc(NC(=O)/C=C/c3ccc(Br)cc3)cc2)no1	inconclusive: 10 µM [inhibitor, partial curve]	–
COC(=O)c1ccc(COc2ccc(C(=O)c3ccccc3)cc2)o1	inconclusive: 0.708 µM [inhibitor, single point]	–
Cc1ccc(N2C(=O)/C(=C\c3ccco3)SC2=S)cc1	inconclusive: 25.1 µM [inhibitor, single point]	–
O=S(=O)(O)c1cccc2c(N=Nc3ccc(O)c4ncccc34)cccc12	inconclusive: 28.2 µM [inhibitor, single point]	–
Cc1c(C(=O)OCC2CCCO2)[nH]c2c1C(=O)CC(c1ccco1)C2 (stereo not drawn)	inconclusive: 39.8 µM [inhibitor, single point]	–
O=S(=O)(Nn1cnnc1)c1ccccc1Cl	inconclusive: 12.6 µM [inhibitor, partial curve]	–
O=C(O)CN1C(=O)/C(=C\c2ccc(OC(=O)c3ccco3)cc2)SC1=S	–	inactive: -8.85%
COC(OC)c1ccnc(SCc2ccccc2Cl)n1	inconclusive: 0.112 µM [inhibitor, full curve, poor fit]	–
COc1ccc(OC)c(NC(=O)CCc2nnc3ccc(NCc4ccco4)nn23)c1	inconclusive: 8.91 µM [inhibitor, partial curve]	–

SMILES	Potency	activity change, negative = inhibition
Cc1ccc2[nH]c(-c3ccccc3)cc(=O)c2c1	–	inactive: -5.74%
COc1ccccc1-c1nc2cc3ccccc3cc2nc1-c1ccccc1OC	inconclusive: 39.8 µM [inhibitor, single point]	–
CCNC(=O)CCSc1nc(C)cc(C)n1	–	inactive: -2.83%
CCOc1ccc(OCC)c(-c2c(=O)n(OCc3ccc(Cl)cc3)c3ccccc3[n+]2[O-])c1	inconclusive: 0.708 µM [inhibitor, single point]	–
COc1ccc(NC(=O)CSc2nnc(-c3ccncc3)o2)c([N+](=O)[O-])c1	inconclusive: 8.91 µM [inhibitor, single point]	–
NC(=O)c1nsc(C(=O)N(c2ccccc2)C(C(=O)NCC2CCCO2)c2cccs2)c1N (stereo not drawn)	–	inactive: -5.08%
O=C(NCCc1ccccc1)C(=O)NCC1OCCN1S(=O)(=O)c1ccc([N+](=O)[O-])cc1 (stereo not drawn)	inconclusive: 0.708 µM [inhibitor, single point]	–
Cc1cccc(N(C)Cc2nnc(-c3cccc(Br)c3)o2)c1	inconclusive: 1 µM [inhibitor, full curve, poor fit]	–
COc1ccc(CNC(=S)Nc2ccccc2F)cc1	inconclusive: 39.8 µM [inhibitor, single point]	–
Cc1ccccc1-c1nc(CS(=O)(=O)CC(=O)NCc2ccc(F)cc2)c(C)o1	inconclusive: 31.6 µM [inhibitor, partial curve, poor fit]	–
O=C(CCc1ccccn1)N1CCCC(N2CCN(c3ccc(F)cc3)CC2)C1 (stereo not drawn)	inconclusive: 0.141 µM [inhibitor, full curve, poor fit]	–
O=C(NC(C(=O)N/N=C/c1cccnc1)c1n[nH]c(=O)c2ccccc12)c1ccccc1 (stereo not drawn)	inconclusive: 0.562 µM [inhibitor, single point]	–
C=Cc1ccc(Cn2c(C(=O)O)c(CNCc3ccccc3)c3ccc(OC)cc32)cc1	active: 31.6 µM	–
CC(C)(C)C(=O)Nc1ccc(C(=O)N/N=C/c2ccccc2OC(=O)c2ccccc2)cc1	inconclusive: 0.794 µM [inhibitor, single point]	–
COC(=O)c1c(-c2cccs2)csc1NC(=O)c1cc(OC)c(OC)c(OC)c1	active: 25.1 µM	–
CN(C)S(=O)(=O)c1cc(C(=O)Nc2ccccc2C(=O)NC2CC2)ccc1Cl	inconclusive: 39.8 µM [inhibitor, single point]	–
CCCCCOC(=O)c1[nH]c2c(c1C)C(=O)CC(c1ccco1)C2 (stereo not drawn)	–	inactive: -12.3%
COCCn1c(=O)c(-c2cc(F)cc(F)c2)nc2cnc(N3CCNCC3)nc21	inconclusive: 35.5 µM [inhibitor, single point]	–
Nc1ccc(-c2nc3c(Cl)cc(N)cc3[nH]2)cc1	inconclusive: 20 µM [inhibitor, partial curve]	–
Cc1ccc(CN2CCN(/N=C/c3ccc(N(C)C)cc3)CC2)cc1	–	inactive: -7.16%
COc1ccc(-c2sc3cc(OC)c(OC)cc3c2C#CC2(O)CCCCC2)cc1	inconclusive: 22.4 µM [inhibitor, partial curve]	–

Record cards, as listed above. Values in the order: Potency | activity change, negative = inhibition
COCCn1c(=O)c(-c2cc(F)cc(F)c2)nc2cnc(N3CCNCC3)nc21 reads inconclusive: 35.5 µM [inhibitor, single point] | –
C=Cc1ccc(Cn2c(C(=O)O)c(CNCc3ccccc3)c3ccc(OC)cc32)cc1 reads active: 31.6 µM | –
